Experimental findings from the supplement of paper PMC12819154, “High-throughput peptide-centric local stability assay extends protein–ligand identification to membrane proteins, tissues and bacteria” (Nature Structural & Molecular Biology, 2025) are described below.

The chains behind the UniProt entries cited, without tags or fusion partners. Where a name states a change or a piece, a line headed by the entry shows the natural chain unless it says otherwise.
UniProt Q8IWV7: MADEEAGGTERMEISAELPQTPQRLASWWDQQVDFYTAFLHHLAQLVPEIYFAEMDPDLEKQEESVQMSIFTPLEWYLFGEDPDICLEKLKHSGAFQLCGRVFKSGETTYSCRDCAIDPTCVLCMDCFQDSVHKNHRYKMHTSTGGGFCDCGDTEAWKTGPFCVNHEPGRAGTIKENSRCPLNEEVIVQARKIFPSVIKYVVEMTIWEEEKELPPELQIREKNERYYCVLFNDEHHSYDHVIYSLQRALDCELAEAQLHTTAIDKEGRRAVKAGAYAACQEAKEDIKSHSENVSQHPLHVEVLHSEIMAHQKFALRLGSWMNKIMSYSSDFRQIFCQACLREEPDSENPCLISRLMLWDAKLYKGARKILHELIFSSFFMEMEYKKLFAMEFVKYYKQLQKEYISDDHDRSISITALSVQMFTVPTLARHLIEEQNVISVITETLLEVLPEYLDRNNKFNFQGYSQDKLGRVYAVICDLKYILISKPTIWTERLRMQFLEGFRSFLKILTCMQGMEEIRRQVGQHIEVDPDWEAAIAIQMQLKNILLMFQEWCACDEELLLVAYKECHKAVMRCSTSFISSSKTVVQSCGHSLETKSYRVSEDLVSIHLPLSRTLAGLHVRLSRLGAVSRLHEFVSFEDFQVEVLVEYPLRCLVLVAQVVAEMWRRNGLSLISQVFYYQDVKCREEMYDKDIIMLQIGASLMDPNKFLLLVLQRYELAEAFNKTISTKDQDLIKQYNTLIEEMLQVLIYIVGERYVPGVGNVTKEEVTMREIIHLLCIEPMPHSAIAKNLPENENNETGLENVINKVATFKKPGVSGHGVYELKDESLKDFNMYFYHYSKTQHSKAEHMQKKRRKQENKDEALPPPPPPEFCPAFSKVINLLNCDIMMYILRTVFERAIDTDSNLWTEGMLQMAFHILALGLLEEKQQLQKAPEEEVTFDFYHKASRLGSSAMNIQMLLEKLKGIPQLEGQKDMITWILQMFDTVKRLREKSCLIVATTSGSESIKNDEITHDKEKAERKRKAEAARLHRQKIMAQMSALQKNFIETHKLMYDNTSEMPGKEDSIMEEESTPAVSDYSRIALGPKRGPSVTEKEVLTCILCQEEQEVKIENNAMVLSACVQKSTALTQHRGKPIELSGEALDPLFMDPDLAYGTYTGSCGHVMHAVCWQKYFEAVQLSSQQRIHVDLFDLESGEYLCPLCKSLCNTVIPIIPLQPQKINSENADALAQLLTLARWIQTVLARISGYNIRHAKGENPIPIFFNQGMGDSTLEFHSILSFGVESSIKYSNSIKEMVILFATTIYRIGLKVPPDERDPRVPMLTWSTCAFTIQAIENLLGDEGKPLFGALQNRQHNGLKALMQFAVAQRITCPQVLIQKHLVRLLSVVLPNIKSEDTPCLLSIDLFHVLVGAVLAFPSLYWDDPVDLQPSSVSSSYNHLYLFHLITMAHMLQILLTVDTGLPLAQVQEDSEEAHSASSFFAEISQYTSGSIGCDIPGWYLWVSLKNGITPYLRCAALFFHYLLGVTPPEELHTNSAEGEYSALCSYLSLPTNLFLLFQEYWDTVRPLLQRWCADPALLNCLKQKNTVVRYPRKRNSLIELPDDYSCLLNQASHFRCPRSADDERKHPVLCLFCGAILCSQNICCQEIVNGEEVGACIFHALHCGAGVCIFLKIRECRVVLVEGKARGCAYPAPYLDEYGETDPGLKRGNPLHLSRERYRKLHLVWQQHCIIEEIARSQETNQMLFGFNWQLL
UniProt Q8N3D4: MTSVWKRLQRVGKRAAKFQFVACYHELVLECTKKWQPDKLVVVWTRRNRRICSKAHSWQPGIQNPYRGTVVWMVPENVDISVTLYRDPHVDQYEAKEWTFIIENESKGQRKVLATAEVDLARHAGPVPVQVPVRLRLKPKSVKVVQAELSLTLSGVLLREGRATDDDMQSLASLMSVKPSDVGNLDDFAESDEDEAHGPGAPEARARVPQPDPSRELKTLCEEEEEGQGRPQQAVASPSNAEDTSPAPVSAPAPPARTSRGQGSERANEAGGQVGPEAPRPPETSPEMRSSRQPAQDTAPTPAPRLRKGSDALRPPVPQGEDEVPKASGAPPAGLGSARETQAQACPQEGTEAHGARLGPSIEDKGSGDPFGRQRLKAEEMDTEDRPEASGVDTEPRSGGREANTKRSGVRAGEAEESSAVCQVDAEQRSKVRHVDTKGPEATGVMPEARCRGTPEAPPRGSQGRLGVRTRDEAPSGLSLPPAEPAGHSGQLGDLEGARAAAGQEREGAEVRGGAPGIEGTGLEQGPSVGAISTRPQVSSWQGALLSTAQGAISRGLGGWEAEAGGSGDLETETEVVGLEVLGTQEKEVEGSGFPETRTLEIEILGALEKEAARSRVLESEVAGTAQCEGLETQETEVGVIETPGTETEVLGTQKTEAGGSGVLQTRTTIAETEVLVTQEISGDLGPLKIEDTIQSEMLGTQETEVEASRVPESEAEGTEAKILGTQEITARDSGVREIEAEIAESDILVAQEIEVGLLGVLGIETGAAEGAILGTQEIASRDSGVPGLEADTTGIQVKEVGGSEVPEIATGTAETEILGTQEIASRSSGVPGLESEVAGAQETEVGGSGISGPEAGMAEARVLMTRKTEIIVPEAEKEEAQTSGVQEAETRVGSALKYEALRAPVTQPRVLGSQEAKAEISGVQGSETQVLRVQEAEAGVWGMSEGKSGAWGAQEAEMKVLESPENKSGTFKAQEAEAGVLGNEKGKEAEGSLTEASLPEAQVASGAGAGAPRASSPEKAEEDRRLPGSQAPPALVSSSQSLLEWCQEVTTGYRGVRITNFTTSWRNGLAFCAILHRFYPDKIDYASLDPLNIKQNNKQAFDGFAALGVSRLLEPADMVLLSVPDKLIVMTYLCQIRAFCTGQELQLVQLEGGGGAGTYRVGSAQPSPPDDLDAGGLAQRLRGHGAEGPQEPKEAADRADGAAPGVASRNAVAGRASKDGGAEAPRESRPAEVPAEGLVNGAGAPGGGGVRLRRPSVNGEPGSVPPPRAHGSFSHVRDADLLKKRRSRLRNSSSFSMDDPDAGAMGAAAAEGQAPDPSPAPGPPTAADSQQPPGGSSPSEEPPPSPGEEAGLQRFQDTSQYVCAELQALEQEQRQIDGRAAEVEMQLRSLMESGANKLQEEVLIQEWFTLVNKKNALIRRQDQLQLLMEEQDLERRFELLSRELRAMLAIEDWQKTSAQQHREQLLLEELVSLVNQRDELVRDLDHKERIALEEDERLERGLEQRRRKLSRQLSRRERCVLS
UniProt Q8IWT0: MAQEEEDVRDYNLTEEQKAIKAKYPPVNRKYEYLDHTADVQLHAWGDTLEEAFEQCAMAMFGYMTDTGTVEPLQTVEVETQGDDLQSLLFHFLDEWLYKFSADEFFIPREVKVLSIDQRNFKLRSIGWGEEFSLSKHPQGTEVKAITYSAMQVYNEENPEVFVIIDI
UniProt Q8IYB8: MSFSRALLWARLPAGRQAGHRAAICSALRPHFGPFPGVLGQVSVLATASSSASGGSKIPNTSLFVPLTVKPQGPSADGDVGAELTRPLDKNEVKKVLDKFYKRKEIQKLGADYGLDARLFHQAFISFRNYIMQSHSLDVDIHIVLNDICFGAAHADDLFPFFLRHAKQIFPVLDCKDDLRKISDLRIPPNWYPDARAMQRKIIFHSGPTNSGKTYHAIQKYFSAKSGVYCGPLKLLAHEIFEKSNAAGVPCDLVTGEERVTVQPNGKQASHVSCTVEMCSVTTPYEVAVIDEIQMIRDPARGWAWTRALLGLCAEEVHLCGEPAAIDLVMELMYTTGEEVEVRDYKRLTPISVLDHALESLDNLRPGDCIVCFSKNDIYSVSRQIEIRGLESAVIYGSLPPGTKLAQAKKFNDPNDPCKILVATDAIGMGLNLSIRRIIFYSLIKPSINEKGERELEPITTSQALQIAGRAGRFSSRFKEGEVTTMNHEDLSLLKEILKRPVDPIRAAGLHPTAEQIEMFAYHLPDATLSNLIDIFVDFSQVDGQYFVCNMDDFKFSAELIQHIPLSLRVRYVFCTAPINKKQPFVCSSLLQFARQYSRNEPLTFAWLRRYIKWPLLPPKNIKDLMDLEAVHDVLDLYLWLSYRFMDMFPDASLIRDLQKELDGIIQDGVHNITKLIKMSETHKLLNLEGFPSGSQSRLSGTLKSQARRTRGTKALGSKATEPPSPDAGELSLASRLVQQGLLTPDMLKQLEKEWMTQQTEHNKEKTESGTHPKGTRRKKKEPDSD
UniProt Q8IXS8: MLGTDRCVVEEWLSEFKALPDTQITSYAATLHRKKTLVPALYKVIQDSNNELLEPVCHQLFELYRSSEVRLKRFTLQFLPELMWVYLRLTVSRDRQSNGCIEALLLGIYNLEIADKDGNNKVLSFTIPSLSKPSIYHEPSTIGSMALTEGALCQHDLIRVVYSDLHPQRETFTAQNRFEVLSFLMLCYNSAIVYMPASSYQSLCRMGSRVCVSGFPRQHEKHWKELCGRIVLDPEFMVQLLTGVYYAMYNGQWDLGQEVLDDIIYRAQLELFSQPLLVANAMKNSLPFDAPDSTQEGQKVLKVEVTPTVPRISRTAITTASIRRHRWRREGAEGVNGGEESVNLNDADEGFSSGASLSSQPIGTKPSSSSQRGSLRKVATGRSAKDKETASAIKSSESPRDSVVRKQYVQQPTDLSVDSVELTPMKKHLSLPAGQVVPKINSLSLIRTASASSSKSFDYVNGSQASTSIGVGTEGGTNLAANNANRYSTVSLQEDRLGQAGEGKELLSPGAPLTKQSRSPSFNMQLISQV
UniProt Q8IZ83: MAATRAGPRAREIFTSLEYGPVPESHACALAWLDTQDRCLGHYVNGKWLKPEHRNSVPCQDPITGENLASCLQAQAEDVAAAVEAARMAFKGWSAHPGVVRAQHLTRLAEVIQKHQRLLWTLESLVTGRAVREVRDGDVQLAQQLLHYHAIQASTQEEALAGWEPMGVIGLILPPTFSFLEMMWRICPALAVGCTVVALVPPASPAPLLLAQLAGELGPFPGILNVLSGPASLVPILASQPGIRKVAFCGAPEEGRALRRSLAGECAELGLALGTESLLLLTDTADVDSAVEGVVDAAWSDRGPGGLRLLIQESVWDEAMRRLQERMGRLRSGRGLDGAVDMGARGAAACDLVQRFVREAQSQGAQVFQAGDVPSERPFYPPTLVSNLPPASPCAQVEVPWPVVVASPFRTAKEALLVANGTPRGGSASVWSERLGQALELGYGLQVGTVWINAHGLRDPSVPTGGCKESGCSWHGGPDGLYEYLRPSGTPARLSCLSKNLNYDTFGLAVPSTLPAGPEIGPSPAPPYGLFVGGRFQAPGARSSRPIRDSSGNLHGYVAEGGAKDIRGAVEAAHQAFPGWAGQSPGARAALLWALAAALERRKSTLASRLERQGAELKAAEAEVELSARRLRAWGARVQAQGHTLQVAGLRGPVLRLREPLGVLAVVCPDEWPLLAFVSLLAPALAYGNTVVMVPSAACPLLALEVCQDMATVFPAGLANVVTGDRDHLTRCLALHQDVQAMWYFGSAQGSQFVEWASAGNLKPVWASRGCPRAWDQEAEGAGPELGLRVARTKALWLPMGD
UniProt Q86XI6: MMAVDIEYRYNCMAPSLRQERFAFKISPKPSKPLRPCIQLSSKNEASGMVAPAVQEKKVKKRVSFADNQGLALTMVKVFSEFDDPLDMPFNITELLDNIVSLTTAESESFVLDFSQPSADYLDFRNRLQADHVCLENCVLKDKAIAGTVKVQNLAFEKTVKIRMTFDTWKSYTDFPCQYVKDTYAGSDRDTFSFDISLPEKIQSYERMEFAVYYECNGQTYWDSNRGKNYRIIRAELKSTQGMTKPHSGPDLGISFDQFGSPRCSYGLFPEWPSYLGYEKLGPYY
UniProt Q8IYL2: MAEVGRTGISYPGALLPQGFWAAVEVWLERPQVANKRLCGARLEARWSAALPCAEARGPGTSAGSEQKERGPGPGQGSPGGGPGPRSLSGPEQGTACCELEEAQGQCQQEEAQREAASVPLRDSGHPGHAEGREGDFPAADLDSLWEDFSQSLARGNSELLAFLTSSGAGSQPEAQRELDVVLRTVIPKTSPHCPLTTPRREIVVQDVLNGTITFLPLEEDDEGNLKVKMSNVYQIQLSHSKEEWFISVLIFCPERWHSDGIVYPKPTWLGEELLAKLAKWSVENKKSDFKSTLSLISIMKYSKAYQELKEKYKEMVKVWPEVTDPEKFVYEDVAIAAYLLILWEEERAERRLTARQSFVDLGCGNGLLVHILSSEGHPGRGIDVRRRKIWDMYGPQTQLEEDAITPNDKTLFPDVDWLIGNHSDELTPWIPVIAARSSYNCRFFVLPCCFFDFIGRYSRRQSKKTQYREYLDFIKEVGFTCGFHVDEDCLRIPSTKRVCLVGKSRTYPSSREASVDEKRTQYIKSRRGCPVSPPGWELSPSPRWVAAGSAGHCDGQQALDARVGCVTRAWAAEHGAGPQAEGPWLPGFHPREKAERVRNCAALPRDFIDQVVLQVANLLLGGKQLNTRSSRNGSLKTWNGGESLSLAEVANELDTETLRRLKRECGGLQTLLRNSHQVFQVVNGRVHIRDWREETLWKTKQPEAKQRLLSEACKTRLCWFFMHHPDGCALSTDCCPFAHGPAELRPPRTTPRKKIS

Some of the results follow. Most entries show no effect beyond the scatter of the controls.

Compound in this experiment: CN[C@@H]1C[C@H]2O[C@@](C)([C@@H]1OC)n1c3ccccc3c3c4c(c5c6ccccc6n2c5c31)C(=O)NC4 [staurosporine]
Put plainly: log2 fold change of tryptic peptide abundance, ligand vs vehicle (limited proteolysis) (log2 ratio); higher = more trypsin-susceptible (destabilized). As to conditions: ligand concentration: 20 uM; sample: K562 cleared lysate; digestion: 4 min, 22 C (HT-PELSA RT4min, Orbitrap Astral).
Take “UBR1 (peptide sequence: VSEDLVSIHLPLSR, peptide start residue: 600) (UniProt Q8IWV7)”: the log2 fold change is -0.361. To “UniProt Q8IW41 (peptide sequence: AVVAGIQQAHAEQLANMR, peptide start residue: 324)” belongs 0.231; to “UniProt Q8IUF8 (peptide sequence: QLLLQVESTTVATRR, peptide start residue: 293)”, 0.37; to “NAV2 (peptide sequence: QNLEETMSSLR, peptide start residue: 270) (UniProt Q8IVL1)”, 0.189.

On to “EHBP1L1 (peptide sequence: RPSVNGEPGSVPPPR, peptide start residue: 1255) (UniProt Q8N3D4)”, for which the log2 fold change was 0.488. Consider “UniProt Q8IUE6 (peptide sequence: KTESHKPGK, peptide start residue: 120)”, for which the log2 fold change was determined as 0.223. To “UniProt Q8N0V3 (peptide sequence: VSLTPDFSACR, peptide start residue: 127)” belongs -0.138; to “KIAA0319L (peptide sequence: ILDATDQESLELKPTSR, peptide start residue: 970) (UniProt Q8IZA0)”, -0.0412. For “ZBTB8OS (peptide sequence: DYNLTEEQK, peptide start residue: 10) (UniProt Q8IWT0)” the value was 0.0439; for “SUPV3L1 (peptide sequence: ELEPITTSQALQIAGR, peptide start residue: 455) (UniProt Q8IYB8)”, 0.493; for “UniProt Q8N0T1 (peptide sequence: NVFHIASQK, peptide start residue: 13)”, 0.299. To “DIS3L2 (peptide sequence: QAFDVLVLR, peptide start residue: 780) (UniProt Q8IYB7)” belongs -0.437.

As to “LTBP4 (peptide sequence: GYLAPSGDLSLR, peptide start residue: 1240) (UniProt Q8N2S1)”, the log2 fold change was 0.458.

As to “FAM126B (peptide sequence: YSTVSLQEDR, peptide start residue: 487) (UniProt Q8IXS8)”, the log2 fold change is -0.17. Consider “UniProt Q8IWY8 (peptide sequence: NSQVYGAVAER, peptide start residue: 275)”, for which the log2 fold change turned out to be 0.356.

Regarding “ALDH16A1 (peptide sequence: KVAFCGAPEEGR, peptide start residue: 245) (UniProt Q8IZ83)”, the log2 fold change stood at 0.397. For “ZNF595 (peptide sequence: AYNLSSTLTK, peptide start residue: 572) (UniProt Q8IYB9)” the value was 0.188. To “AGGF1 (peptide sequence: DESFVGPTLSK, peptide start residue: 541) (UniProt Q8N302)” belongs 0.631. For “RPAP2 (peptide sequence: LKASENSESEYSR, peptide start residue: 309) (UniProt Q8IXW5)” the value was -0.565; for “ARHGAP12 (peptide sequence: AFYVPAQYVK, peptide start residue: 61) (UniProt Q8IWW6)”, 0.234.

Take “DDX42 (peptide sequence: DIDTHTHR, peptide start residue: 578) (UniProt Q86XP3)”: the log2 fold change is 0.208. To “UniProt Q86XI6 (peptide sequence: STQGMTKPHSGPDLGISFDQFGSPR, peptide start residue: 239)” belongs -0.253. “PARG (peptide sequence: STQYLNQHQTAAMCK, peptide start residue: 142) (UniProt Q86W56)”: the log2 fold change was -0.161.

On to “NIT1 (peptide sequence: ECGLWLSLGGFHER, peptide start residue: 119) (UniProt Q86X76)”, for which the log2 fold change stood at 0.417.

For “CUL9 (peptide sequence: MLQALAAHDAGSR, peptide start residue: 189) (UniProt Q8IWT3)”, the log2 fold change is -0.395. Take “CNPY4 (peptide sequence: SREVLELGQVLDTGKR, peptide start residue: 58) (UniProt Q8N129)”: the log2 fold change was found to be 0.108. To “UniProt Q8IVE0 (peptide sequence: LQAAQEELR, peptide start residue: 629)” belongs -0.0915.

In the case of “FCHSD1 (peptide sequence: SDHGIFHSR, peptide start residue: 175) (UniProt Q86WN1)”, the log2 fold change was found to be 0.359. Regarding “PPARGC1B (peptide sequence: ACSNPSQQVR, peptide start residue: 315) (UniProt Q86YN6)”, the log2 fold change worked out at 0.69. For “UniProt Q8IYL2 (peptide sequence: RGCPVSPPGWELSPSPR, peptide start residue: 528)” the value was 0.34; for “NUDCD3 (peptide sequence: SMATVDEEEQAVLDR, peptide start residue: 293) (UniProt Q8IVD9)”, -0.322; for “LCORL (peptide sequence: NGSIGPSIVCK, peptide start residue: 184) (UniProt Q8N3X6)”, 0.227.

Consider “UniProt Q8IVN3 (peptide sequence: SQAGAQEAPIKK, peptide start residue: 2)”, for which the log2 fold change was -0.164. For “STX12 (peptide sequence: LQENLQQLQHSTNQLAK, peptide start residue: 59) (UniProt Q86Y82)” the value was 0.149. For “MYO18B (peptide sequence: RIDEDQDDLNELMQK, peptide start residue: 1895) (UniProt Q8IUG5)” the value was 0.932; for “CRLF3 (peptide sequence: DVLKQHFNDLK, peptide start residue: 53) (UniProt Q8IUI8)”, -0.329; for “UniProt Q8N0Z3 (peptide sequence: VSHMGEDLENK, peptide start residue: 606)”, 0.416.
